Most values lie at the floor of the assay. Slopes are relative: functional sequences can read slightly below zero.
The substances below were run on Saccharomyces cerevisiae PS128 hsf1 delta, HSF1(1-493) fusion (assay: growth estimate (transactivation domain function in HSF1 fusion, heat-shock survival) (a.u. (slope of normalised read count over time)); higher = stronger growth at 37°C, i.e. more transactivation activity). Conditions: library: random library.
In the case of KTRVSRFQCPARQVVRIFRG, the growth estimate is reported as less than -0.25. KTW was tested, and the growth estimate was -0.243. KTYG gave a growth estimate of less than -0.25. Work on KVAAAAFF yielded a growth estimate of -0.231. For KVARGTDIRPHFIQVGMFTV, the growth estimate was -0.199. KVCTYAVSGERMLSNVSCVQ showed a growth estimate of less than -0.25. In the case of KVFENVDTPLLESIGIADLP, the growth estimate is reported as less than -0.25. With KVFIYTEHAYAL the growth estimate was less than -0.25. KVGADPCVGLSLNIE gave a growth estimate of less than -0.25. Work on KVGLTRICSEAPDLWPLPRY yielded a growth estimate of less than -0.25. Work on KVGSAG yielded a growth estimate of less than -0.25. Substance KVHVYVYLLSRPKSIMH has a growth estimate of less than -0.25. In the case of KVIEESVLSVWVYQ, the growth estimate is reported as less than -0.25. Substance KVLR has a growth estimate of less than -0.25. In the case of KVMKEGPCLYLGARALGALL, the growth estimate is reported as less than -0.25. For KVPGRRLDGRCLYQALVIPR, the growth estimate was less than -0.25. For KVPPAPMRLYRVGNEGRYDL, the growth estimate was less than -0.25. Work on KVRGIPWFP yielded a growth estimate of less than -0.25. Substance KVRVSVVADPKCKI has a growth estimate of less than -0.25. For KVSSAFKL, the growth estimate was -0.243. KVSTH was tested, and the growth estimate was less than -0.25. KVTEIGHQVTFPTR was tested, and the growth estimate was less than -0.25. KVTLIRD showed a growth estimate of less than -0.25. In the case of KVTQYGDVISVDIKLRH, the growth estimate is reported as -0.246. For KVVRGPIKEQDVCGGKVGHW, the growth estimate was less than -0.25. Substance KVYAGCKGKPGCIDIKIYNL has a growth estimate of less than -0.25. In the case of KVYARVFLFQLGFREASIYG, the growth estimate is reported as -0.246. Work on KVYCHP yielded a growth estimate of less than -0.25. With KWGGDTGGQPH the growth estimate was less than -0.25. For KWNTNYFPCGPRQTPSLRPV, the growth estimate was less than -0.25. Work on KWQVIRRSS yielded a growth estimate of less than -0.25. KWS was tested, and the growth estimate was less than -0.25. KWTAFVRPRGRRETRSVNVS showed a growth estimate of less than -0.25. KWTSTHT was tested, and the growth estimate was less than -0.25. In the case of KWVAPKSDLVCLQRIPMPGI, the growth estimate is reported as less than -0.25. With KWYVTSDSCGMSPPSFGIAP the growth estimate was less than -0.25. KYATA gave a growth estimate of less than -0.25. KYIVRNVRTV showed a growth estimate of less than -0.25. Substance KYKEQGKSKDLPMNTALVPY has a growth estimate of less than -0.25. With KYKPRFPIRPIVEYSVYNQA the growth estimate was less than -0.25. KYNWGSVTILRGKLPKPAHG was tested, and the growth estimate was less than -0.25. With KYPGSMLPSS the growth estimate was less than -0.25. Substance KYRLRPVFEFTGF has a growth estimate of less than -0.25. Work on KYRVVS yielded a growth estimate of less than -0.25. For KYSERG, the growth estimate was less than -0.25. In the case of KYSGWVVIVLLLDEIPTRLL, the growth estimate is reported as less than -0.25. Substance KYSKWVYVRGGSWTQFPVSH has a growth estimate of less than -0.25. KYTNAGKSL gave a growth estimate of less than -0.25. For KYVGYPRIAFVGRRTSLTRI, the growth estimate was less than -0.25. LAAHWIFRPKDRNRGVHDAM was tested, and the growth estimate was less than -0.25. LAARGINPTNRPRVISPCDS showed a growth estimate of less than -0.25. For LACIRQSDRGP, the growth estimate was -0.244. For LACKPGV, the growth estimate was less than -0.25. Work on LACR yielded a growth estimate of less than -0.25. For LAEPPAAGESRMIIRRLCYD, the growth estimate was -0.124. Substance LAETGRWCPYARCE has a growth estimate of less than -0.25. LAGLDFKGR gave a growth estimate of less than -0.25. Substance LAGLTLDGT has a growth estimate of less than -0.25. LAGMSK was tested, and the growth estimate was less than -0.25. LAGRFW was tested, and the growth estimate was less than -0.25. Substance LAGRGAPDAVFVEIHDNKKG has a growth estimate of less than -0.25. Work on LAGRNRSLSRGRCARDWR yielded a growth estimate of less than -0.25. LAGSSGSGPSVTRIGVGPAS showed a growth estimate of less than -0.25. LAHIHMGSPSCRGQGGSNVE was tested, and the growth estimate was less than -0.25. In the case of LAILGWIT, the growth estimate is reported as less than -0.25. For LAIRDFKHGFYGADRS, the growth estimate was less than -0.25. LAISCLPYPSSKC gave a growth estimate of less than -0.25. Work on LAISTGVTTLPGRRVTRASG yielded a growth estimate of less than -0.25. LAKGCMSHSWNGPSGMVRFA was tested, and the growth estimate was less than -0.25. With LAKM the growth estimate was less than -0.25. With LALDKKIRSLVHLNTTYKQQ the growth estimate was less than -0.25. In the case of LALGVLITEILEILILAGN, the growth estimate is reported as less than -0.25. LANCTLCTRTAHVFSETTVV gave a growth estimate of less than -0.25. LANDPLDRASQPGFFSKSGN showed a growth estimate of less than -0.25. LAPQ showed a growth estimate of less than -0.25. In the case of LARASALSAR, the growth estimate is reported as less than -0.25. Substance LARPCIG has a growth estimate of less than -0.25. Substance LARTGALNADVWNRRRGPRR has a growth estimate of less than -0.25. Substance LARVLHRILTKPSARRDQLM has a growth estimate of less than -0.25. LARVLSVPSESCYIWVNRAK was tested, and the growth estimate was less than -0.25. With LASDCVTFVEERSRRIGARP the growth estimate was less than -0.25. Work on LASGRSLPRASRNEPRFQHH yielded a growth estimate of less than -0.25. LASPSRDTSALT was tested, and the growth estimate was less than -0.25. LASSAQWCVLNNGALSCRVL gave a growth estimate of -0.243. LASSDDFLYTKIRCVCGKLW showed a growth estimate of less than -0.25. Work on LASVI yielded a growth estimate of less than -0.25. LASWNCVEF showed a growth estimate of less than -0.25. For LATLCQLPFGCESTESMGLN, the growth estimate was less than -0.25. LATQNPKFWFVRARRLHRQT was tested, and the growth estimate was less than -0.25. In the case of LATRIHLRV, the growth estimate is reported as less than -0.25. Work on LAVLGVPNARFRRCRDVPLV yielded a growth estimate of less than -0.25. For LAVRLPWRPFDNRFELSLGG, the growth estimate was less than -0.25. Substance LAVRYPGYPWGRPRGGVRHH has a growth estimate of less than -0.25. Work on LAYRLG yielded a growth estimate of less than -0.25. Work on LAYVKYESPMGAGLSDPRVC yielded a growth estimate of less than -0.25. LCAGVLRGPSTCAP showed a growth estimate of less than -0.25. With LCCGDSRRRRHIQVDRSESR the growth estimate was less than -0.25. For LCCPRGVFNKSGPMRCRRQA, the growth estimate was less than -0.25. With LCEVAHDNVSSDS the growth estimate was less than -0.25.

— the supplement of paper PMC5949888
